Screen size: about 390,000 compounds; about 760 (0.19%) were called active. Inconclusive results, whose numbers are uncertain, are shown with a selection of clear calls. The call rests on the fitted dose curve; in most records, active means well fitted inhibition curve with a large enough effect; inconclusive means small, poorly fitted or top-dose-only effect; inactive means flat fitted curve, though single readings scatter. A potency beside an inconclusive call is a rough fit, not a confirmed value.
Experiment: qHTS for Inhibitors of Vif-A3F Interactions: qHTS; further: nearly all actives have a fitted effect of over 65% in size; on activity, negative = active: % of control where 0% means no effect
Details: HeLa A3F-eYFP + Vif (tagged APOBEC3F with the HIV-1 protein that degrades it), YFP fluorescence increase; series mostly up to 46.1 µM; activity, negative = active: at the top concentration
Method in brief: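 Fluorescence increase (Ex 488/Em 500-530) after overnight compound treatment at 37 deg C flags inhibition of Vif-driven A3F-eYFP loss in stable HeLa A3F-eYFP/Vif cells seeded overnight beforehand.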
Potency means the concentration at half of the fitted maximal effect.

| SMILES | Potency | activity, negative = active |
| --- | --- | --- |
| CC(C)[C@H]1C(=O)N2CCC[C@H]2[C@]2(O)O[C@](NC(=O)[C@@H]3C=C4c5cccc6[nH]cc(c56)C[C@H]4N(C)C3)(C(C)C)C(=O)N12 | inconclusive: 15.8 µM [inhibitor, partial curve, poor fit] |  |
| O=C1NC(=O)N(c2ccc3c(c2)OCO3)C(=O)/C1=C\c1ccc(N2CCCCC2)o1 | active: 4.47 µM |  |
| O=C1NC(=O)C(=Cc2ccc(-c3ccc(S(=O)(=O)N4CCOCC4)cc3)o2)C(=O)N1 | inconclusive: 35.5 µM [inhibitor, single point] |  |
| CN(C)CCSC1c2ccccc2CSc2ccccc21 (configuration not stated) | inconclusive: 14.1 µM [inhibitor, single point] |  |
| Cc1cc(C)cc(N2C(=O)NC(=O)/C(=C/c3cccn3-c3ccc(Cl)cc3)C2=O)c1 | inconclusive: 22.4 µM [inhibitor, single point] |  |
| COc1cccc(-n2c(SCC(=O)c3ccc(Cl)cc3)nc3c([nH]c4ccccc43)c2=O)c1 | inconclusive: 25.1 µM [inhibitor, single point] |  |
| C=CCSc1nc2c(c(-c3ccsc3)c1C#N)CN(C)CC2 | inconclusive: 35.5 µM [inhibitor, single point] |  |
| COc1cc(/C=C/c2nc3ccccc3c(=O)n2-c2ccc(O)cc2)ccc1O | inconclusive: 17.8 µM [inhibitor, partial curve, poor fit] |  |
| O=C(Cc1ccccc1)c1ccccn1 | inconclusive: 28.2 µM [inhibitor, single point] |  |
| N=Cc1c(O)n(-c2ccc(C34CC5CC(CC(C5)C3)C4)cc2)c(=O)[nH]c1=O | inconclusive: 35.5 µM [inhibitor, single point] |  |
| COc1ccc(N2C(=O)/C(=C/C=C/c3ccccc3[N+](=O)[O-])C(=O)NC2=S)cc1 | inconclusive: 5.62 µM [inhibitor, single point] |  |
| CN1C(=O)C(=Cc2ccc(N3CCCCC3)o2)C(=O)N(C)C1=S | active: 3.98 µM |  |
| COP(=O)(OC)Oc1ccc(C(O)C(Cl)(Cl)Cl)cc1 (configuration not stated) |  | inactive: -1.76% |
| Cc1cccc(N2C(=O)NC(=O)/C(=C\C=C\c3ccco3)C2=O)c1 | inconclusive: 22.4 µM [inhibitor, single point] |  |
| CN(C)C(=O)Oc1c(Cl)cc(Cl)c2cccnc12 |  | inactive: -4.18% |
| CN1CCN(c2ccccc2N)CC1 |  | inactive: -3.86% |
| O=c1c2ccccc2[se]n1-c1ccccc1 | inconclusive: 35.5 µM [inhibitor, single point] |  |
| C=C1C(O)(c2ccccc2)C2CC[N+]1(C)CC2 (configuration not stated) |  | inactive: -3.67% |
| O=C1NC(=O)N(c2ccc3c(c2)OCO3)C(=O)/C1=C\c1ccsc1 |  | inactive: -16.2% |
| CCOc1ccccc1N1C(=O)CC(=O)NC1=O |  | inactive: 12.8% |
| CCOC(=O)[C@]12Cc3ccsc3[C@H]1N(Cc1ccccc1)C(=O)c1ccccc12 |  | inactive: -0.0879% |
| O=C1NC(=S)N(c2ccc(F)cc2)C(=O)/C1=C\c1ccoc1 |  | inactive: -4.71% |

| SMILES | Potency | activity, negative = active |
| --- | --- | --- |
| CCC(C(=O)Nc1ccccc1F)N1C(=O)CN=C(c2ccccc2)c2ccccc21 (configuration not stated) |  | inactive: -8.19% |
| O=[N+]([O-])c1ccc(-c2ccccc2)c([As](=O)(O)O)c1 | inconclusive: 35.5 µM [inhibitor, single point] |  |
| CCOC(=O)c1ccc(Nc2nc(C)cc(C)n2)cc1 | inconclusive: 3.55 µM [inhibitor, partial curve] |  |
| Nc1ccccc1N=Cc1c(O)n(CCC2=CCCCC2)c(=O)[nH]c1=O | inconclusive: 3.55 µM [inhibitor, single point] |  |
| COc1ccccc1NC(=O)Cn1c(=O)n(-c2cccc(Cl)c2)c(=O)c2sc3ccccc3c21 | inconclusive: 3.16 µM [inhibitor, partial curve, poor fit] |  |
| O=C(c1ccccc1)c1ccc2nc(N3CCN(c4ccc(F)cc4)CC3)c3nncn3c2c1 | inconclusive: 20 µM [inhibitor, single point] |  |
| COc1ccc2cc1Oc1ccc(cc1)C[C@H]1c3cc(c(OC)cc3CCN1C)Oc1c(O)c(OC)cc3c1[C@H](C2)N(C)CC3 | inconclusive: 31.6 µM [inhibitor, single point] |  |
| CCCCCc1nc2c(c(=O)c3ccccc3n2C)c(=O)n1C1CCCCCC1 | inconclusive: 35.5 µM [inhibitor, single point] |  |
| CCOc1cc(C=C2C(=O)NC(=O)NC2=O)ccc1OCC(=O)N1CCOCC1 |  | inactive: 7.51% |
| Cc1cc(-c2nc3ncccc3o2)ccc1NC(=O)c1ccccc1Br | inconclusive: 35.5 µM [inhibitor, single point] |  |
| Cc1ccc(Cn2ccccc2=N)cc1 | inconclusive: 3.98 µM [inhibitor, single point] |  |
| CC(C)c1ccc(N2C(=O)NC(=O)/C(=C/c3cnc(-c4ccccc4)nc3)C2=O)cc1 | inconclusive: 17.8 µM [inhibitor, partial curve, poor fit] |  |
| Cc1ccc2nc(N3CCN(C)CC3)[nH]c2c1 |  | inactive: -8.86% |
| CCOc1ccccc1N1C(=O)NC(=O)/C(=C/c2ccc3c4c(cccc24)CC3)C1=O |  | inactive: -6.45% |
| CCOC(=O)c1cc(CC)sc1/N=C/C1C(=O)NC(=S)NC1=O | inconclusive: 15.8 µM [inhibitor, partial curve, poor fit] |  |
| O=c1[nH]c(=O)n(Cc2ccco2)c(O)c1C=NCCN1CCOCC1 | inconclusive: 17.8 µM [inhibitor, single point] |  |
| Oc1ccc(-[n+]2c(-c3ccccc3)cc(-c3ccccc3)cc2-c2ccccc2)cc1 |  | inactive: 3.03% |
| Cc1ccc(C)c(NC(=O)Cn2nc(C)c3nn(-c4ccc(Cl)cc4)c(C)c3c2=O)c1 | inconclusive: 11.2 µM [inhibitor, partial curve, poor fit] |  |
| C=CCn1c(=O)c(C=Nc2cccnc2Cl)c(O)n(CCCC)c1=O | inconclusive: 20 µM [inhibitor, single point] |  |
| N#CC(C#N)=Cc1ccc(N2CCCC2)cc1 | inconclusive: 35.5 µM [inhibitor, single point] |  |
| CCOC(=O)C(O)(c1ccc(NC(=S)NC(=O)c2ccc(Cl)cc2Cl)cc1)C(F)(F)F (configuration not stated) | inconclusive: 35.5 µM [inhibitor, single point] |  |
| CCc1ccc(N2C(=O)NC(=O)/C(=C\C=C\c3ccco3)C2=O)cc1 | inconclusive: 20 µM [inhibitor, single point] |  |
| COc1ccc(CC2C(=O)N(C)C(=O)N(C)C2=O)c(OC)c1 | inconclusive: 35.5 µM [inhibitor, single point] |  |

| SMILES | Potency | activity, negative = active |
| --- | --- | --- |
| CSc1nc(C)c(Br)c(N2CC2)n1 | inconclusive: 17.8 µM [inhibitor, partial curve, poor fit] |  |
| Nc1ccc2nonc2c1[N+](=O)[O-] | inconclusive: 14.1 µM [inhibitor, single point] |  |
| O=C1NC(=O)C(=Cc2ccco2)C(=O)N1 | inconclusive: 11.2 µM [inhibitor, partial curve, poor fit] |  |
| COc1ccc(-n2c(O)c(C=NCc3ccc4c(c3)OCO4)c(=O)[nH]c2=O)cc1 | inconclusive: 15.8 µM [inhibitor, single point] |  |
| O=C1NC(=O)C(=Cc2c(Cl)cccc2Cl)C(=O)N1 | inconclusive: 11.2 µM [inhibitor, partial curve, poor fit] |  |
| O=C1NC(=O)C(Nc2ccc(Cl)c(Cl)c2)C(=O)N1 |  | inactive: -12.8% |
| COc1cc2c(cc1OC)-c1c(OC)c(OC)c(OC)c3ccnc(c13)C2=O |  | inactive: 0.702% |
| CN1C(=O)C(=Cc2sc(=O)n(-c3ccccc3)c2N(C)C)C(=O)N(C)C1=O | inconclusive: 35.5 µM [inhibitor, single point] |  |
| COc1ccc(C=C(C#N)c2ccc(OC)cc2)cc1 | inconclusive: 12.6 µM [inhibitor, partial curve, poor fit] |  |
| Cc1ccc(/C=C2\C(=O)NC(=S)N(c3ccc(F)cc3)C2=O)o1 | inconclusive: 22.4 µM [inhibitor, single point] |  |
| O=C1NC(=O)N(Cc2ccco2)C(=O)/C1=C/c1ccc(-c2cccc([N+](=O)[O-])c2)o1 |  | inactive: -6.95% |
| CCOP(=O)(OCC)C(O)c1cccc([N+](=O)[O-])c1 (configuration not stated) | inconclusive: 35.5 µM [inhibitor, single point] |  |
| O=C(N/N=C/c1c(O)n(C2CC2)c(=S)[nH]c1=O)c1ccccc1O | inconclusive: 2 µM [inhibitor, single point] |  |
| CCC(C)NC(=O)c1c(N)n(Cc2ccc3c(c2)OCO3)c2nc3ccccc3nc12 (configuration not stated) | inconclusive: 17.8 µM [inhibitor, single point] |  |
| CCn1ccnc1CN1CCCC(C(=O)c2ccc(SC)cc2)C1 (configuration not stated) | inconclusive: 22.4 µM [inhibitor, single point] |  |
| CCOc1cccc(=NC2CCCCC2)c2c(C)n(C)c(C)c12 |  | inactive: -1.27% |
| Cc1cccc(-n2c(/C=C/c3c(C)[nH]c4ccccc34)nc3ccccc3c2=O)c1 | active: 10 µM |  |
| O=C(Cn1c(=O)n(Cc2ccccc2)c(=O)c2sc3ccccc3c21)NCc1ccccc1Cl | inconclusive: 3.55 µM [inhibitor, partial curve, poor fit] |  |
| N#CC(C#N)=Cc1ccc(-c2ccccc2F)o1 | inconclusive: 35.5 µM [inhibitor, single point] |  |
| CNC(=O)O/N=C(\N)Cc1csc2ccccc12 | inconclusive: 15.8 µM [inhibitor, partial curve, poor fit] |  |
| O=C1CNC(c2ccccc2Cl)c2cc(Br)ccc2N1 (configuration not stated) | inconclusive: 35.5 µM [inhibitor, single point] |  |

Fetched by structure from the entries so far (4):

| SMILES | Potency | activity, negative = active |
| --- | --- | --- |
| CN1C(=O)C(=Cc2sc(=O)n(-c3ccccc3)c2N(C)C)C(=O)N(C)C1=O | inconclusive: 35.5 µM [inhibitor, single point] |  |
| COc1ccc(C=C(C#N)c2ccc(OC)cc2)cc1 | inconclusive: 12.6 µM [inhibitor, partial curve, poor fit] |  |
| O=C1NC(=O)N(c2ccc3c(c2)OCO3)C(=O)/C1=C\c1ccsc1 |  | inactive: -16.2% |
| O=[N+]([O-])c1ccc(-c2ccccc2)c([As](=O)(O)O)c1 | inconclusive: 35.5 µM [inhibitor, single point] |  |

Reference: PubChem BioAssay AID602313 (National Center for Advancing Translational Sciences (NCATS), 2012)
